Reference: patent US6642368B1, “Programmed cell death and caspase-12” (The General Hospital Corporation, priority 1998, dated 2003)
These are yes or no findings as the source states them, for the method shown. In cells and extracts the contact can be indirect. Some entries that bind do so weakly or less than the wild type. Tags and fused reporters may be left off the sequences shown.

Molecular target: T1, His-tagged caspase-12Δ, intact form (42 kDa), partially purified from E. coli (mouse) (UniProt O08736)
T1 sequence: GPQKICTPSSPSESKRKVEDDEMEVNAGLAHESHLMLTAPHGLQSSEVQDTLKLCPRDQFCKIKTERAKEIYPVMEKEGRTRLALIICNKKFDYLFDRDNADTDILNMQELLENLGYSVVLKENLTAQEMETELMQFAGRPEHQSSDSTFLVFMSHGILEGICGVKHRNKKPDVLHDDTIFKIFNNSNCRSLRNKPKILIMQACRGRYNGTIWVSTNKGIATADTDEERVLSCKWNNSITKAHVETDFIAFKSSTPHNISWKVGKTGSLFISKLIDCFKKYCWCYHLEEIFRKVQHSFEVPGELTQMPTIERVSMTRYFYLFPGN
Assay: co-purification with the His-tagged protein on a Ni column; chains identified by microsequencing

binding: binds
B1: small subunit (10 kDa) of caspase-12Δ, starting right after Asp318 (protein)
chain: TDEERVLSCKWNNSITKAHVETDFIAFKSSTPHNISWKVGKTGSLFISKLIDCFKKYCWCYHLEEIFRKVQHSFEVPGELTQMPTIERVSMTRYFYLFPGN
